# Assay results reported in the supplement of paper PMC4604168 (melanoma cell lines).
# This is one part of the list. Repeats are few or missing, and single values can be far off.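 Cells were imaged in 1,536-well plates, and nuclei stained with an antibody against cleaved PARP were counted against all DNA-stained nuclei to give the apoptosis fraction. Screening doses were chosen to leave most cells alive, and resting and induced cleaved-PARP levels differ strongly between cell lines.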
# Tested on: SkMel28
# Test: cleaved PARP positive nuclei fraction relative to DMSO control; melanoma cells; higher = more apoptosis
# Details: library dose: low library concentration; 72 h
row,Compound,cleaved PARP positive nuclei fraction
1,"CC(=O)c1c(C)c2cnc(Nc3ccc(N4CCNCC4)cn3)nc2n(C2CCCC2)c1=O [palbociclib] + Nc1cccc2c1CN(C1CCC(=O)NC1=O)C2=O [lenalidomide] (first compound 0.04 µM, partner dose 1 µM)",81.9%
2,"CC(=O)c1c(C)c2cnc(Nc3ccc(N4CCNCC4)cn3)nc2n(C2CCCC2)c1=O [palbociclib] + COc1ccc(Cl)c(Nc2nc3ccccc3nc2NS(=O)(=O)c2cccc(NC(=O)C(C)(C)N)c2)c1 [XL147] (first compound 0.04 µM, partner dose 0.8 µM)",82.3%
3,"CC(=O)c1c(C)c2cnc(Nc3ccc(N4CCNCC4)cn3)nc2n(C2CCCC2)c1=O [palbociclib] + Cc1nc(Nc2ncc(C(=O)Nc3c(C)cccc3Cl)s2)cc(N2CCN(CCO)CC2)n1 [dasatanib] (first compound 0.04 µM, partner dose 0.004 µM)",89.1%
4,"C=CCNC1=C2C[C@@H](C)C[C@H](OC)[C@H](O)[C@@H](C)/C=C(\C)[C@H](OC(N)=O)[C@@H](OC)/C=C\C=C(/C)C(=O)NC(=CC1=O)C2=O [Tanespimycin] + COc1ccc(Cl)c(Nc2nc3ccccc3nc2NS(=O)(=O)c2cccc(NC(=O)C(C)(C)N)c2)c1 [XL147] (first compound 0.002 µM, partner dose 0.8 µM)",80.1%
5,"OCc1c[nH]c2ccccc12 [Indole-3-carbinol] + C#Cc1cccc(Nc2ncnc3cc(OCCOC)c(OCCOC)cc23)c1 [erlotinib] (first compound 0.8 µM, partner dose 0.8 µM)",89.6%
6,"CC(=O)c1c(C)c2cnc(Nc3ccc(N4CCNCC4)cn3)nc2n(C2CCCC2)c1=O [palbociclib] + C[C@]1(c2nc3c(C(N)=O)cccc3[nH]2)CCCN1 [Veliparib] (first compound 0.04 µM, partner dose 1.4 µM)",106%
7,"C=CCNC1=C2C[C@@H](C)C[C@H](OC)[C@H](O)[C@@H](C)/C=C(\C)[C@H](OC(N)=O)[C@@H](OC)/C=C\C=C(/C)C(=O)NC(=CC1=O)C2=O [Tanespimycin] + C#Cc1cccc(Nc2ncnc3cc(OCCOC)c(OCCOC)cc23)c1 [erlotinib] (first compound 0.002 µM, partner dose 0.8 µM)",103%
8,"C=CCNC1=C2C[C@@H](C)C[C@H](OC)[C@H](O)[C@@H](C)/C=C(\C)[C@H](OC(N)=O)[C@@H](OC)/C=C\C=C(/C)C(=O)NC(=CC1=O)C2=O [Tanespimycin] + Clc1ccc(Nc2nnc(Cc3ccncc3)c3ccccc23)cc1 [vatalanib] (first compound 0.002 µM, partner dose 2 µM)",97.3%
9,"COCC[n+]1c2c(n(Cc3cnccn3)c1C)C(=O)c1ccccc1C2=O + Nc1cccc2c1CN(C1CCC(=O)NC1=O)C2=O [lenalidomide] (first compound 0.0004 µM, partner dose 1 µM)",75.3%
10,"C#Cc1cccc(Nc2ncnc3cc(OCCOC)c(OCCOC)cc23)c1 [erlotinib] + C[C@]1(c2nc3c(C(N)=O)cccc3[nH]2)CCCN1 [Veliparib] (first compound 0.8 µM, partner dose 1.4 µM)",51.8%
11,"CC(=O)c1c(C)c2cnc(Nc3ccc(N4CCNCC4)cn3)nc2n(C2CCCC2)c1=O [palbociclib] + C#Cc1cccc(Nc2ncnc3cc(OCCOC)c(OCCOC)cc23)c1 [erlotinib] (first compound 0.04 µM, partner dose 0.8 µM)",124%
12,"Nc1cccc2c1CN(C1CCC(=O)NC1=O)C2=O (centres undefined) [lenalidomide] + COc1cc(Nc2ncc(F)c(Nc3ccc4c(n3)NC(=O)C(C)(C)O4)n2)cc(OC)c1OC [Tamatinib] (first compound 1 µM, partner dose 0.4 µM)",269%
13,"C[C@]1(c2nc3c(C(N)=O)cccc3[nH]2)CCCN1 [Veliparib] + CC(C)(C)c1cnc(CSc2cnc(NC(=O)C3CCNCC3)s2)o1 [SNS-032] (first compound 1.4 µM, partner dose 0.01 µM)",72.1%
14,"Cc1nc(Nc2ncc(C(=O)Nc3c(C)cccc3Cl)s2)cc(N2CCN(CCO)CC2)n1 [dasatanib] + Nc1cccc2c1CN(C1CCC(=O)NC1=O)C2=O [lenalidomide] (first compound 0.004 µM, partner dose 1 µM)",105%
